The exact form of at least one protein or probe is not confirmed. Protein sequences can lack the tags named with them.
Target: T1, SPEN RRM 1-4 (Homo sapiens) (UniProt Q96T58)
T1 sequence (limits assumed): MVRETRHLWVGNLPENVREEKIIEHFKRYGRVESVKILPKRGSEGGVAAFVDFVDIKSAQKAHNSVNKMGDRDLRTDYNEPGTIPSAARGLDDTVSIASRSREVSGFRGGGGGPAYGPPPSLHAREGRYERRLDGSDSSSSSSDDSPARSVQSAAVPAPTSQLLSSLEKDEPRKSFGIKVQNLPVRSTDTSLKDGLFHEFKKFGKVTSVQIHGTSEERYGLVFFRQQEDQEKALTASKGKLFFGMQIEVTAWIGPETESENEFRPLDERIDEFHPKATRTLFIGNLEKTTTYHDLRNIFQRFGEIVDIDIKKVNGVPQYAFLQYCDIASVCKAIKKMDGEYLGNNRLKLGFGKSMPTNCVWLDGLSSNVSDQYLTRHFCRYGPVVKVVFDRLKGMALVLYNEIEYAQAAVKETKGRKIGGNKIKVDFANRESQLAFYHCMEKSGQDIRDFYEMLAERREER
Assay: competition with a labelled probe
Conditions: unlabeled SRA displaces 1 µM Cy3-XIST A-full at 10 µM protein; EMSA: 20 mM Tris-HCl pH 7.5, 150 mM KCl, 5 mM MgCl2, 10% glycerol, room temperature 30 min, 2 nM each labeled RNA (multiplexed), 4.5% TBE native gel; recombinant protein

GUACCAGGUAUGUGAUGACAUCAGCCGACGCCUGGCACUGCUGCAGGAACAGUGGGCUGGAGGAAAGUUGUCAAUACCUGUAAAGAAGAGAAUGGCUCUACUGGUGCAAGAGCUUUCAAGCCACCGGUGGGACGCAGCAGAUGACAUCCACCGCUCCCUCAUGGUUGACCAUGUGACUGAGGUCAGUCAGUGGAUGGUAGGAGUUAAAAGAUUAAUUGCAGAAAAGAGGAGUCUGUUUUCAGAGGAGGCAGCCAAUGAAGAGAAAUCUGCAGCCACAGCUGAGAAGAACCAUACCAUACCAGGCUUCCAGCAGGCUUCAUAAUCCUCGGUUCCCCAGACUCACCGGACACCAUCUCCU [SRA]
binding result: binds

— PMC10870365, “Dissection of protein and RNA regions required for SPEN binding to XIST A-repeat RNA”
